According to paper PMC10997554:
No constants are given. Whether binding was seen depends on the method and setting. Binding seen in cells or lysates may run through a third protein. Some results given as binding are weak or reduced against the parent protein; the word gives no strength.

Protein sequences, listed by entry. Tags and fused reporters are not part of them.
UniProt P51608: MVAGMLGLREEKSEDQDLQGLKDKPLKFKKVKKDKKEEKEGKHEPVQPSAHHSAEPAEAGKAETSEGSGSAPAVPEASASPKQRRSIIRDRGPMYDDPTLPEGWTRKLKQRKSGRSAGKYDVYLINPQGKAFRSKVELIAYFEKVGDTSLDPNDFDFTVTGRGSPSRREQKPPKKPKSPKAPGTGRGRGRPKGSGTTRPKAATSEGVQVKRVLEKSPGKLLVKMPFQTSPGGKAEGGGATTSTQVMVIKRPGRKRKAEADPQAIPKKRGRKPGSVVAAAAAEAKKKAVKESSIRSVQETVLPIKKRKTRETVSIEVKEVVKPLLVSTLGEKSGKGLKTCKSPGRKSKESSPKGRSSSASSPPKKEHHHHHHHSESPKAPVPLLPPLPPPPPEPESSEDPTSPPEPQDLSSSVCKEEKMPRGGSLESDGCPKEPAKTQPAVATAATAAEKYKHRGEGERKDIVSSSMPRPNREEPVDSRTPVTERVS

Molecular target: methyl-CpG-binding protein 2 (MeCP2) (human) (UniProt P51608)
Assay: co-IP; HeLa cells, 48 h after transfection; lysis buffer 50 mM Tris-HCl pH 7.5, 150 mM NaCl, 10% glycerol, 0.5% NP-40; anti-FLAG M2 magnetic beads or anti-c-Myc affinity agarose, 4 °C, 4 h; western blot

B1: DCAF13 (protein, UniProt Q9NV06 1-445)
chain: MKVKMLSRNPDNYVRETKLDLQRVPRNYDPALHPFEVPREYIRALNATKLERVFAKPFLASLDGHRDGVNCLAKHPEKLATVLSGACDGEVRIWNLTQRNCIRTIQAHEGFVRGICTRFCGTSFFTVGDDKTVKQWKMDGPGYGDEEEPLHTILGKTVYTGIDHHWKEAVFATCGQQVDIWDEQRTNPICSMTWGFDSISSVKFNPIETFLLGSCASDRNIVLYDMRQATPLKKVILDMRTNTICWNPMEAFIFTAANEDYNLYTFDMRALDTPVMVHMDHVSAVLDVDYSPTGKEFVSASFDKSIRIFPVDKSRSREVYHTKRMQHVICVKWTSDSKYIMCGSDEMNIRLWKANASEKLGVLTSREKAAKDYNQKLKEKFQHYPHIKRIARHRHLPKSIYSQIQEQRIMKEARRRKEVNRIKHSKPGSVPLVSEKKKHVVAVVK
- binding: binds
